Source: PubChem BioAssay AID624297 (National Center for Advancing Translational Sciences (NCATS), 2012)
Among all 340,000 compounds or so, about 6,200 (1.8%) were called active. Inconclusive means that the source gave no clear call. Such entries were picked first, then a sample of the others. Calls come from the whole dose curve; as a rule, active = well fitted activation curve with a large enough effect; inconclusive = small, poorly fitted or top-dose-only effect; inactive = no such curve, though single readings can be large or run the other way. Potencies of inconclusive entries are doubtful fits and often do not repeat.

assay: A quantitative high throughput screen for small molecules that induce DNA re-replication in SW480 colon adenocarcinoma cells.; note: nearly all actives have a fitted effect of over 55% in size; for re-replication activation: % of control where 0% means no effect; details: Hoechst DNA content imaging, 48 h; re-replication activation: at 46.1 µM (top of the series) unless noted
Method in brief: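 Per well, 250 cells were exposed to pinned compound for 48 hr. Nuclear DNA was visualised with Hoechst (40 min, 37 C) and total object intensity recorded by fluorescence scanning.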
Potency is the fitted concentration of half-maximal effect.

| Compound | Potency | re-replication activation |
| --- | --- | --- |
| N#Cc1c(-c2ccccc2F)cc(C2CC2)nc1SCC(=O)c1cccs1 | active: 10.3 µM |  |
| O=C(NCC1CCN(Cc2ccc(F)cc2)CC1)Nc1cc(F)ccc1F | inactive |  |
| N=c1ccn(Cc2cccc(F)c2)cc1 | inconclusive: 7.31 µM [activator, partial curve, poor fit] |  |
| O=c1cc2oc3cc(O)c(O)cc3c(-c3ccccc3[N+](=O)[O-])c-2cc1O | inactive |  |
| CC(=O)C12CCCCC1CC1C3CC(C)C4(O)CC(=O)CCC4(C)C3CCC12C (centres undefined) | inconclusive: 18.4 µM [activator, single point] |  |
| O=C(Nc1c2c(nn1-c1ccccc1)CS(=O)(=O)C2)c1cc2ccccc2o1 | inconclusive: 29.1 µM [activator, single point] |  |
| CC(=O)c1ccc(Nc2c(C)n(C)n(-c3ccccc3)c2=O)cc1 | inconclusive: 5.8 µM [activator, single point] |  |
| c1ccc2cc(N3CCCCC3)ccc2c1 | inconclusive: 0.58 µM [activator, partial curve, poor fit] |  |
| Cc1ccc(NC(=O)c2cccc(S(=O)(=O)NCc3ccccc3)c2)nc1 | inconclusive: 18.4 µM [activator, single point] |  |
| CCCCN(C(=O)c1cccc(S(=O)(=O)N2CCN(C)CC2)c1)c1c(N)n(CCCC)c(=O)[nH]c1=O | inconclusive: 29.1 µM [activator, single point] |  |
| COc1ccc(S(N)(=O)=O)cc1C(=O)NCCCN1CCN(c2ccc(C)cc2)CC1 |  | inactive: -1.45% [at 9.22 µM] |
| COc1ccc(-c2nc(CSCC(=O)N3CCN(c4cccc(C)c4)C(C)C3)c(C)o2)cc1OC (centres undefined) | inconclusive: 25.9 µM [activator, single point] |  |
| CCN1c2ccccc2-c2nc3ccccc3n2C1c1ccco1 (centres undefined) | inconclusive: 20.6 µM [activator, single point] |  |
| CCCC(C(=O)Nc1ccc(S(=O)(=O)N2CCOCC2)cc1)c1ccccc1 (centres undefined) | active: 0.231 µM |  |
| CCOC(=O)CNC(c1ccccc1)c1cc(Br)ccc1NC(=O)OCC (centres undefined) | inactive |  |
| COCCN(C(=O)COC(=O)c1ccccc1NCc1ccco1)c1c(N)n(Cc2ccccc2)c(=O)[nH]c1=O | inconclusive: 0.0046 µM [activator, full curve, poor fit] |  |
| Cc1nc(NC(=O)C(Cl)Cl)sc1C(=O)N(C)C | inactive |  |
| O=C(NCC1CCCO1)C(Cc1ccccc1)N1C(=O)C2C3C=CC(C4CC34)C2C1=O (centres undefined) | inconclusive: 29.1 µM [activator, single point] |  |
| COc1ccccc1Cn1c(=O)c2ccccc2n2c(Sc3ncnc4sccc34)nnc12 | active: 20.6 µM |  |

Two entries picked at random from the list so far:

| Compound | Potency | re-replication activation |
| --- | --- | --- |
| CCCC(C(=O)Nc1ccc(S(=O)(=O)N2CCOCC2)cc1)c1ccccc1 (centres undefined) | active: 0.231 µM |  |
| Cc1ccc(NC(=O)c2cccc(S(=O)(=O)NCc3ccccc3)c2)nc1 | inconclusive: 18.4 µM [activator, single point] |  |
